Test results taken from US8212036B2, “Maleate salts of 6-(5-chloro-2-pyridyl)-5-[(4-methyl-1-piperazinyl)carbonyloxy]-7-oxo-6,7-dihydro-5H-pyrrolo[3,4-b]pyrazine” (Sunovion Pharmaceuticals Inc., priority 2007, dated 2012).

Test: Open-label taste assessment (Flavor Profile bitterness) in healthy human subjects
Format: in vivo
Conditions: scale 0-3

Question: What does the source list for `CN1CCN(C(=O)O[C@H]2c3nccnc3C(=O)N2c2ccc(Cl)cn2)CC1.O=C(O)/C=C\C(=O)O` [Maleate, (S)-Zopiclone Maleate]?
Answer: Human taste bitterness intensity (0.01 mg/5 mL in water, aftertaste t = 1 minutes): 1.2; Human taste bitterness intensity (1.0 mg/5 mL in water, aftertaste t = 30 minutes): 1.2
